# Data reported in PubChem BioAssay AID624246 (National Center for Advancing Translational Sciences (NCATS), 2012).
# Chains of the proteins cited; added tags and fusions are not shown.
# UniProt P11308, whole entry, looked up: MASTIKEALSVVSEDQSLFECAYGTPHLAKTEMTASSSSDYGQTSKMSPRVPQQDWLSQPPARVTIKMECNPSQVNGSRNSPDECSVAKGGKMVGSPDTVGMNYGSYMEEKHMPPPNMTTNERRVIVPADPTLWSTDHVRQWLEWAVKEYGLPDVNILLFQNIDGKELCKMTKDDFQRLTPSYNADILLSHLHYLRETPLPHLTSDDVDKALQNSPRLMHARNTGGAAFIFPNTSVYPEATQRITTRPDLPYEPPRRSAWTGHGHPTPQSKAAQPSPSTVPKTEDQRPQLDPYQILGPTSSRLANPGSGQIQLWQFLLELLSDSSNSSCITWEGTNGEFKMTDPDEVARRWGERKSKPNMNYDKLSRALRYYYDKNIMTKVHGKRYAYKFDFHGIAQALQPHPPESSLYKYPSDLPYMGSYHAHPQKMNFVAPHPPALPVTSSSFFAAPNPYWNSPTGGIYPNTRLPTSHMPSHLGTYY
# Out of some 370,000 compounds screened, about 100 (0.027%) were called active. This list was built around the results that the source calls inconclusive (neither active nor inactive); the mix of calls is not that of the screen. Calls come from the whole dose curve; as a rule, active = well fitted inhibition curve with a large enough effect in the polarisation, with a control signal flat; inconclusive = small, poorly fitted or top-dose-only effect, or effect the other way, or a change in a side signal; inactive = no such curve, though single readings can be large or run the other way; the % refers to the polarisation. Potencies of inconclusive entries are doubtful fits and often do not repeat. “Side channel” marks fits to a control or component signal instead of the main read-out. Some structures have more than one record in an assay (separate samples or runs), and their calls can disagree.
# Target: Transcriptional regulator ERG (Homo sapiens) (UniProt P11308)
# Experiment: qHTS for Small Molecule Inhibitors of the ERG Ets/DNA interaction
# Details: fluorescence polarization, His-ERG Ets domain / labelled DNA; series mostly up to 76.9 µM
# Method in brief: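 His-tagged ERG Ets domain (1 uM in the protein solution; 300mM KCl, 50mM Tris-HCl, 1mM EDTA, 1mM DTT, pH 7.5) received compound, then a probe mix of 5 nM fluorescein-DNA and 100nM Texas-615-DNA. Fluorescence polarization was read for both dyes.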
# Potency is the fitted concentration of half-maximal effect.
row,Compound,Potency
1,Cc1ccc(C(C)NC(=O)c2cccnc2)cc1 (stereo not drawn),"inconclusive: 7.08 µM [inhibitor, partial curve, poor fit]"
2,COCCn1c(=S)[nH]c2cc(C(=O)N3CCN(c4cccc(Cl)c4)CC3)ccc2c1=O,inactive
3,COc1ccc(NC(=O)COC(=O)C2CCC2)cc1Cl,"inconclusive: 31.6 µM [inhibitor, single point]"
4,O=c1c2c3c(sc2nc(NCCOCCO)n1Cc1ccco1)CCCCC3,inactive
5,COCCN1CCN(c2cc(-c3ccccc3)nc3cc(-c4cccc(F)c4)nn23)CC1,"inconclusive: 31.6 µM [quencher, side channel, partial curve, poor fit]"
6,CC(C)NS(=O)(=O)c1ccc(CCC(=O)NCc2ccncc2)cc1,"inconclusive: 50.1 µM [inhibitor, single point]"
7,CCOCC(=O)NCc1ccc2c(c1)cc(C)n2C,"inconclusive: 28.2 µM [inhibitor, single point]"
8,CC(NC(=O)CN(C1CCCCC1)S(C)(=O)=O)c1ccccc1 (stereo not drawn),"inconclusive: 3.98 µM [fluorescent, side channel, partial curve, poor fit]"
9,CCCCN(CCO)CCCC,inactive
10,Cc1ccccc1-c1noc(-c2ccc(N3CCCCC3)c([N+](=O)[O-])c2)n1,"inconclusive: 31.6 µM [quencher, partial curve, poor fit]"
11,O=C(COC(=O)/C(=C/c1cccs1)c1cccs1)NC(c1ccccc1)c1ccccc1,"inconclusive: 31.6 µM [quencher, side channel, partial curve, poor fit]"
12,COc1cccc(CNC(=O)c2cc(C)nc3c2c(C)nn3-c2ccc(C)cc2)c1,inactive
13,CCc1nc2ccccc2c(C(=O)NCc2ccccc2)c1C,"inconclusive: 56.2 µM [inhibitor, single point]"
14,Cc1cc2cc(CNC(=O)c3ccc(S(=O)(=O)N4CCCC4)cc3)ccc2n1C,"inconclusive: 35.5 µM [inhibitor, single point]"
15,O=C(NCc1cccc(Cl)c1)c1ccncc1,"inconclusive: 6.31 µM [inhibitor, partial curve, poor fit]"
16,CCOC(=O)/C=C/c1cnn(-c2ccccc2)c1,"inconclusive: 31.6 µM [quencher, side channel, partial curve, poor fit]"
17,COc1ccc(C(=O)NC(=S)NNC(=O)c2ccc(NC(=O)C(C)C)cc2)cc1,"inconclusive: 3.55 µM [inhibitor, partial curve, poor fit]"
18,COc1ccc2[nH]c3c(C)c4ccncc4c(C)c3c2c1,"inconclusive: 12.6 µM [inhibitor, partial curve]"
19,Nc1ccc2ccc(O)cc2c1,inactive
20,COc1ccc(-c2nc(CS(=O)CC(=O)NCc3ccccn3)c(C)o2)cc1 (stereo not drawn),active: 35.5 µM
21,O=C(NC(=S)NNS(=O)(=O)c1ccc(Cl)cc1)c1cccnc1,"inconclusive: 22.4 µM [inhibitor, partial curve, poor fit]"
22,Cn1cnc(S(=O)(=O)N2CCC(C(=O)N3CCN(c4ccccc4F)CC3)CC2)c1,"inconclusive: 11.2 µM [quencher, side channel, partial curve, poor fit]"
23,CCOc1ccc2c(c1)NC(c1cccs1)=NC(c1ccc(F)cc1)=N2,inactive

row,Compound,Potency
1,Cc1ccc2[nH]c(C)c(/C=N/Nc3nc4ccccc4s3)c2c1,"inconclusive: 28.2 µM [quencher, side channel, single point]"
2,COc1ccc(/C=C/C(=O)Nc2sc3c(c2C(N)=O)CCC(C)C3)cc1OC (stereo not drawn),inactive
3,CC(C)C(=O)Nc1ccc(-c2nc3ncccc3o2)cc1,"inconclusive: 0.891 µM [inhibitor, full curve, poor fit]"
4,Cc1ccccc1OCC(=O)Nc1ccc2[nH]ncc2c1,"inconclusive: 31.6 µM [inhibitor, single point]"
5,COc1ccccc1CNC(=O)c1ccc(N2Cc3cccc(OC)c3Oc3ncccc32)s1,inactive
6,O=C(N/N=C/c1cc(Br)c(Br)o1)c1cccnc1,inactive
7,O=C(Nc1ccc(F)cc1F)N1CCCC(c2nc(-c3ccc(F)cc3)no2)C1 (stereo not drawn),inactive
8,CC(C)(C)C(=O)Nc1ncc(C(F)(F)F)cc1Cl,inactive
9,CCOC(=O)C(=N/O)/C(C)=N/NC(=O)C(=O)Nc1cc(Cl)ccc1Cl,inactive
10,O=C(c1cc(-c2ccc3c(c2)OCO3)on1)N1CCCCC1,inactive
11,O=C(N/N=C/c1ccc2ccccc2c1)c1ccc(COc2ccc3c(c2)CCC3)o1,inactive
12,COc1ccc(S(=O)(=O)NCC2CC3C=CC2C3)cc1OC (stereo not drawn),"inconclusive: 3.55 µM [inhibitor, partial curve, poor fit]"
13,CCC(=O)NCCn1c(C)cc2ccccc21,"inconclusive: 39.8 µM [inhibitor, single point]"
14,Cc1nc(Nc2cccc(F)c2)c2oc3ccccc3c2n1,"inconclusive: 1.12 µM [inhibitor, partial curve, poor fit]"
15,CC1(OC(=O)c2ccco2)C(=O)C=C2C=C(C3CC3)OC=C2C1=O (stereo not drawn),"inconclusive: 44.7 µM [inhibitor, partial curve, poor fit]"
16,COc1cc(/C=C/C(=O)OCC(=O)NC(=O)NC2CCCCC2C)ccc1OC(F)F (stereo not drawn),"inconclusive: 6.31 µM [inhibitor, single point]"
17,Cc1nc2cc(-c3cccc(F)c3)nn2c(C)c1CCC(=O)NCCc1ccccc1,inactive
18,C/C(=N\Nc1ccc([N+](=O)[O-])cc1[N+](=O)[O-])C(C)C(C)C (stereo not drawn),"inconclusive: 12.6 µM [inhibitor, partial curve, poor fit]"
19,Cc1ccc(C)c(NC(=O)C2CCN(S(=O)(=O)c3c(C)noc3/C=C/c3cccs3)CC2)c1,"inconclusive: 39.8 µM [quencher, side channel, single point]"
20,Nc1nc(-c2ccccc2)c(N=Nc2ccccc2Cl)s1,"inconclusive: 31.6 µM [quencher, side channel, partial curve, poor fit]"
21,Clc1ccc2c(c1)-n1cc(-c3ccccc3)nc1CO2,"inconclusive: 8.91 µM [quencher, side channel, partial curve, poor fit]"
22,CCCCN1C=CC(=C2C(=O)c3ccccc3C2=O)C=C1,inactive
23,CCOc1ccc(C(=O)COC(=O)c2cc(=O)[nH]c3ccccc23)cc1,inactive

row,Compound,Potency
1,NC(=O)Cn1c(O)c(N=NC(=O)CNC(=O)/C=C/c2ccccc2)c2ccccc21,inactive
2,Cc1ccc(-c2noc(CCC(=O)Nc3ccc4c(c3)OCO4)n2)cc1,"inconclusive: 28.2 µM [quencher, side channel, single point]"
3,N=C1SC(c2ccccc2)C(=O)N1c1ncc(Cc2ccccc2Cl)s1 (stereo not drawn),inactive
4,COc1ccc(C)cc1N(C(=O)c1ccc(C#N)cc1)C1=NC(C)(C)CS1,"inconclusive: 50.1 µM [inhibitor, single point]"
5,COc1ccc(NS(=O)(=O)c2cccc(NC(=O)NC3CCCCC3)c2)cc1,"inconclusive: 11.2 µM [inhibitor, partial curve, poor fit]"
6,COc1ccc(CNC(=O)N[C@@H](Cc2c[nH]c3ccccc23)C(=O)O)cc1,"inconclusive: 10 µM [inhibitor, partial curve, poor fit]"
7,Nc1ccc2[nH]ncc2c1,"inconclusive: 10 µM [inhibitor, single point]"
8,CCc1cc(C(=O)c2ccc(OC)cc2)c(N)s1,inactive
9,O=C(c1c(F)cccc1Cl)N1CCN(c2ccccn2)CC1,"inconclusive: 5.62 µM [inhibitor, single point]"
10,CCc1ccccc1NC1=NCC(=O)N1C1CCCC1,"inconclusive: 50.1 µM [inhibitor, single point]"
11,CC(=O)O[C@]1(C(C)=O)CC[C@H]2[C@@H]3C[C@H](C)C4=CC(=O)CC[C@]4(C)[C@H]3CC[C@@]21C,active: 25.1 µM
12,Cc1ccccc1NC(=O)c1ccccc1-c1ccccc1,"inconclusive: 50.1 µM [inhibitor, single point]"
13,COCCn1c(C)c(C)c(S(=O)(=O)c2ccccc2)c1N,active: 35.5 µM
14,COc1ccc(C(=O)Nc2nc(-c3ccc(OC)cc3)c(-c3ccc([N+](=O)[O-])cc3)s2)cc1,"inconclusive: 79.4 µM [inhibitor, single point]"
15,Cc1cccc(C2N=C(N)Nc3nc4ccccc4n32)c1 (stereo not drawn),"inconclusive: 50.1 µM [quencher, side channel, single point]"
16,CCN(C(=O)COC(=O)c1ccc(=O)n(Cc2ccccc2)n1)C1CCS(=O)(=O)C1 (stereo not drawn),"inconclusive: 50.1 µM [inhibitor, single point]"
17,Cc1ccc(OCCn2cc(/C=N/NC(=O)c3ccncc3)c3ccccc32)cc1,"inconclusive: 50.1 µM [inhibitor, single point]"
18,Nc1ccc(Oc2ccc3c(c2)OCO3)cc1,"inconclusive: 2.24 µM [quencher, side channel, full curve, poor fit]"
19,O=C(CCc1c[nH]c2ccccc12)NCc1ccco1,"inconclusive: 0.794 µM [inhibitor, full curve, poor fit]"
20,CNc1nc2c(c(=O)n(C)c(=O)n2C)n1CC(O)COc1ccc(OC)cc1 (stereo not drawn),inactive
21,CCOc1ccc(-c2nnc(SCC(=O)Nc3cc(C)ccc3OC)o2)cc1,inactive
22,CCN1C(=O)CS/C1=C(\C#N)S(=O)(=O)c1ccccc1,"inconclusive: 39.8 µM [fluorescent, side channel, partial curve]"

# Already shown: entries from further up.
row,Compound,Potency
4,COc1ccc(C)cc1N(C(=O)c1ccc(C#N)cc1)C1=NC(C)(C)CS1,"inconclusive: 50.1 µM [inhibitor, single point]"
5,COc1ccc(NS(=O)(=O)c2cccc(NC(=O)NC3CCCCC3)c2)cc1,"inconclusive: 11.2 µM [inhibitor, partial curve, poor fit]"
6,COc1ccc(CNC(=O)N[C@@H](Cc2c[nH]c3ccccc23)C(=O)O)cc1,"inconclusive: 10 µM [inhibitor, partial curve, poor fit]"
7,Nc1ccc2[nH]ncc2c1,"inconclusive: 10 µM [inhibitor, single point]"
8,CCc1cc(C(=O)c2ccc(OC)cc2)c(N)s1,inactive
9,O=C(c1c(F)cccc1Cl)N1CCN(c2ccccn2)CC1,"inconclusive: 5.62 µM [inhibitor, single point]"
10,CCc1ccccc1NC1=NCC(=O)N1C1CCCC1,"inconclusive: 50.1 µM [inhibitor, single point]"
11,CC(=O)O[C@]1(C(C)=O)CC[C@H]2[C@@H]3C[C@H](C)C4=CC(=O)CC[C@]4(C)[C@H]3CC[C@@]21C,active: 25.1 µM
12,Cc1ccccc1NC(=O)c1ccccc1-c1ccccc1,"inconclusive: 50.1 µM [inhibitor, single point]"
13,COCCn1c(C)c(C)c(S(=O)(=O)c2ccccc2)c1N,active: 35.5 µM
14,COc1ccc(C(=O)Nc2nc(-c3ccc(OC)cc3)c(-c3ccc([N+](=O)[O-])cc3)s2)cc1,"inconclusive: 79.4 µM [inhibitor, single point]"
15,Cc1cccc(C2N=C(N)Nc3nc4ccccc4n32)c1 (stereo not drawn),"inconclusive: 50.1 µM [quencher, side channel, single point]"
16,CCN(C(=O)COC(=O)c1ccc(=O)n(Cc2ccccc2)n1)C1CCS(=O)(=O)C1 (stereo not drawn),"inconclusive: 50.1 µM [inhibitor, single point]"
17,Cc1ccc(OCCn2cc(/C=N/NC(=O)c3ccncc3)c3ccccc32)cc1,"inconclusive: 50.1 µM [inhibitor, single point]"
18,Nc1ccc(Oc2ccc3c(c2)OCO3)cc1,"inconclusive: 2.24 µM [quencher, side channel, full curve, poor fit]"
19,O=C(CCc1c[nH]c2ccccc12)NCc1ccco1,"inconclusive: 0.794 µM [inhibitor, full curve, poor fit]"
20,CNc1nc2c(c(=O)n(C)c(=O)n2C)n1CC(O)COc1ccc(OC)cc1 (stereo not drawn),inactive
21,CCOc1ccc(-c2nnc(SCC(=O)Nc3cc(C)ccc3OC)o2)cc1,inactive
